# Experimental data reported in patent US6180679 (dated 2001).
# Assay: general procedure: solution-phase peptide synthesis; pentafluorophenyl diphenylphosphinate/DIPEA (macrolactamisation); DCC/DMAP (este)
# Settings: late stage modification step
substance,measurement,value
Cryptophycin 55,step yield,48%
